# Results taken from the supplement of paper PMC12542422.
# Counter-ions that a name gives are not always drawn. ± gives the standard deviation of the averaged measurements. Some of the results follow. These are raw signals, not scaled to a control.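 Across three biological replicates, HeLa cells were imaged for ribosome assembly using ENP1 staining (export block present or absent) or inducible tagged ribosomal protein reporters. Machine learning classified each cell's signal localization relative to DMSO controls. Hits exceeded the DMSO false-positive mean by five standard deviations and were then visually confirmed.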
# Test system: HeLa RPS2-YFP reporter
# Assay: fraction of reporter-positive cells with nuclear (nucleolar or nucleolar/nucleoplasmic) RPS2-YFP (MainHitrate); higher = more cells with nucleolar/nuclear readout signal (for ENP1 -LMB: less RNAPI inhibition; for +LMB ENP1 and RP reporters: stronger nuclear/nucleolar retention, i.e. ribosome biogenesis defect)
# Settings: concentration: 1 µM; treatment time: 6 h
row,Compound,fraction of reporter-positive cells with nuclear
1,CN(C)CCC(c1ccc(Cl)cc1)c1ccccn1 (configuration not stated) [Chlorpheniramine Maleate],0.106 ± 0.088
2,CC(C)(Oc1ccc(CCNC(=O)c2ccc(Cl)cc2)cc1)C(=O)O [Bezafibrate],0.0764 ± 0.045
3,"CN(C)CCOc1ccc(/C(=C(/CCCl)c2ccccc2)c2ccccc2)cc1 [Toremifene Citrate (Fareston, Acapodene)]",0.128 ± 0.097
4,Nc1ccc(S(=O)(=O)Nc2nccs2)cc1 [Sulfathiazole],0.0762 ± 0.028
5,C[C@]12CC[C@@H]3c4ccc(O)cc4CC[C@H]3[C@@H]1CC[C@@H]2O [Estradiol],0.146 ± 0.11
6,C[C@@H]1C/C=C/C=C/C=C/C=C/[C@H](O[C@@H]2O[C@H](C)[C@@H](O)[C@H](N)[C@@H]2O)C[C@@H]2O[C@](O)(C[C@@H](O)C[C@H]3O[C@@H]3/C=C/C(=O)O1)C[C@H](O)[C@H]2C(=O)O [Natamycin (Pimaricin)],0.0785 ± 0.065
7,C[C@](N)(Cc1ccc(O)c(O)c1)C(=O)O [Methyldopa (Aldomet)],0.141 ± 0.097
